Measured data: PubChem BioAssay AID1259425 (University of Nebraska Medical Center, 2018)

Aim: 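Find knockdowns that reproduce the gene expression pattern seen when KSR1 is lost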 (primary screen)
Cell system: HCT116 human colon cancer cells
Reagent: siRNA pool against human genes, 50 nM siRNA
Measurement: 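After 50 nM siRNA pool, branched-DNA assay measures six marker transcripts per well, minus blank, normalised to the geometric mean of two housekeeping transcripts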
Direction: BNIP3L mRNA: higher = more BNIP3L transcript after knockdown
This is a random part of about 14,000 reagents. Reagents against one gene are numbered here. Some reagents were tested in more than one well and are listed for each. Not all columns of the deposit are shown. The record does not give: the time to read-out.

Silencing of RNF103 (ring finger protein 103) resulted in: BNIP3L mRNA, set 1 = 0.115.
Depletion of TFB1M (transcription factor B1, mitochondrial) resulted in: BNIP3L mRNA, set 1 = 0.151.
After knock-down of RASA3 (RAS p21 protein activator 3) the results were BNIP3L mRNA, set 1 = 0.0449.
For BTN2A1 (butyrophilin subfamily 2 member A1), the values are BNIP3L mRNA, set 1 = 0.182.
Depletion of BTN2A1 (butyrophilin subfamily 2 member A1) resulted in: BNIP3L mRNA, set 1 = 0.116.
After knock-down of TCF4 (transcription factor 4) the results were BNIP3L mRNA, set 1 = 0.0873.
Silencing of TARS2 (threonyl-tRNA synthetase 2, mitochondrial) came out at: BNIP3L mRNA, set 1 = 0.112.
After knock-down of LONRF3 (LON peptidase N-terminal domain and ring finger 3) the results were BNIP3L mRNA, set 1 = 0.176.
Silencing of FBXO22 (F-box protein 22) gave: BNIP3L mRNA, set 1 = 0.0694.
For AGPS (alkylglycerone phosphate synthase), the values are BNIP3L mRNA, set 1 = 0.0187.
Silencing of IGFBP1 (insulin like growth factor binding protein 1) gave: BNIP3L mRNA, set 1 = 0.108.
Silencing of SEZ6L (seizure related 6 homolog like) came out at: BNIP3L mRNA, set 1 = 0.224.
Against PGLS (6-phosphogluconolactonase), the entry reads BNIP3L mRNA, set 1 = 0.0945.
KRT16 (keratin 16) gave BNIP3L mRNA, set 1 = 0.0625.
With knock-down of OVOL2 (ovo like zinc finger 2) the results were BNIP3L mRNA, set 1 = 0.0722.
FOXN1 (forkhead box N1) gave BNIP3L mRNA, set 1 = 0.0837.
Depletion of HHATL (hedgehog acyltransferase like) gave: BNIP3L mRNA, set 1 = 0.136.
For ZNF672 (zinc finger protein 672), the values are BNIP3L mRNA, set 1 = 0.0105.
With knock-down of LTBP1 (latent transforming growth factor beta binding protein 1), the record shows BNIP3L mRNA, set 1 = 0.122.
MRPS18B (mitochondrial ribosomal protein S18B) scored BNIP3L mRNA, set 1 = 0.101.
Silencing of SDR39U1 (short chain dehydrogenase/reductase family 39U member 1) came out at: BNIP3L mRNA, set 1 = 0.194.
With knock-down of ZER1 (zyg-11 related cell cycle regulator) the results were BNIP3L mRNA, set 1 = 0.11.
KRT33A (keratin 33A) showed BNIP3L mRNA, set 1 = 0.17.
RCE1 (Ras converting CAAX endopeptidase 1) scored BNIP3L mRNA, set 1 = 0.0845.
ASMTL (acetylserotonin O-methyltransferase like) gave BNIP3L mRNA, set 1 = 0.0707.
ROR2 (ROR family WNT receptor 2) scored BNIP3L mRNA, set 1 = 0.181.
For PHLDB1 (pleckstrin homology like domain family B member 1), the entry reads BNIP3L mRNA, set 1 = 0.0688.
With knock-down of MICAL3 #1 the results were BNIP3L mRNA, set 1 = 0.0491.
After knock-down of MICAL3 #2, the screen gave BNIP3L mRNA, set 1 = 0.116.

No new results follow: 3 of the entries above.
ZER1 (zyg-11 related cell cycle regulator) — BNIP3L mRNA, set 1: 0.11
KRT33A (keratin 33A) — BNIP3L mRNA, set 1: 0.17
RCE1 (Ras converting CAAX endopeptidase 1) — BNIP3L mRNA, set 1: 0.0845
